EP1932513A2, “Compounds for improving the visual appearance of the skin” (Henkel AG & Co. KGaA, priority 2006, dated 2008)
Some of these results come from one statement about several compounds together.

System: Proteasom
Test: Proteasome activity (suc-LLVY-MCA hydrolysis) in lysate of treated fibroblasts
Type: cell-based, menschlich
Settings: summary in words of the fibroblast results
Procedure: Dermale Fibroblasten (isoliert aus menschlicher Vorhaut) wurden bei 37°C und 5 Vol.-% CO2 mit Dulbecco's Minimal Essential Medium High Glucose unter Zusatz von 1 Gew.-% Glutamax, 1 Gew.-% Penicillin/Streptomycin und 10 Gew.-% fetalem Kälberserum kultiviert. Zur UV-A Bestrahlung mittels eines Teilkörperbestrahlungshimmels Typ Sellamed 2000 (Dr. Sellmeier; Bestrahlungsspektrum: 340-400 nm, Maximum: 360-380 nm) wurden die Zellen in Petrischalen ausplattiert (ca. 3,8 x 10^4 Zellen/cm^2; zuzüglich 2 Tage Wachstum, danach noch subkonfluent), das Zellmedium abgesaugt, die Zellen einmal mit PBS gewaschen und die UV-A Bestrahlung anschließend in PBS durchgeführt (Dosierung über Zeitintervall bis zu 14min bei […]). Nach UV-A Bestrahlung und Entfernung des PBS wurden die Zellen wieder mit Zellmedium versetzt und bis zur Zellernte bei 37°C, 5 Vol.-% CO2 aufbewahrt. Nach Zelltrypsinierung und -schabung erfolgte unter Zusatz von hypotonem Salzpuffer (10 mM HEPES, 24 mM KCl, 10 mM MgCl2, pH 7,5) und Anwendung der Frier-Tau-Technik die Herstellung des Zelllysats. Nicht lysierte Zellen sowie Membranen und Zellkerne wurden durch zehnminütige Zentrifugation bei 14000 rpm und 4°C abgetrennt. […]

Row | SMILES | durch UV-A-Bestrahlung induzierte Abnahme der Proteasomaktivität
1 | O=C1O[C@H]([C@@H](O)CO)C(O)=C1OP(=O)(O)O [Natriumascorbylphosphat] | reduzieren
2 | NC(CCC(=O)O)C(=O)NCCc1c[nH]c2ccccc12 (centres unmarked) [Glistin, Glutamylamidoethylindol] | reduzieren
